{"source": "patent US10260060B2", "about": "“Genetically modified phenylpyruvate decarboxylase, processes to prepare, and uses thereof” (Dow Global Technologies LLC, priority 2014, dated 2019)", "origin": "cited, not measured here", "system": "Azospirillum brasilense phenylpyruvate decarboxylase (AbPPDC)", "details": "Spaepen et al., J. Bacteriol., 2007; cited from earlier work", "note": "At least one compound was matched to its structure with a doubt left."}
{"smiles": "O=C(O)C(=O)CCCc1ccccc1", "note": "[5-phenyl-2-ketopentanoate]", "values": [{"measurement": "catalytic efficiency", "value": "high catalytic efficiencies"}]}
